Results from article doi:10.1101/2021.06.16.448656.

T1: γ1-COP-ultraID (γ1-COP subunit of coatomer with ultraID fused to its C-terminus) (UniProt Q9QZE5)
T1 sequence: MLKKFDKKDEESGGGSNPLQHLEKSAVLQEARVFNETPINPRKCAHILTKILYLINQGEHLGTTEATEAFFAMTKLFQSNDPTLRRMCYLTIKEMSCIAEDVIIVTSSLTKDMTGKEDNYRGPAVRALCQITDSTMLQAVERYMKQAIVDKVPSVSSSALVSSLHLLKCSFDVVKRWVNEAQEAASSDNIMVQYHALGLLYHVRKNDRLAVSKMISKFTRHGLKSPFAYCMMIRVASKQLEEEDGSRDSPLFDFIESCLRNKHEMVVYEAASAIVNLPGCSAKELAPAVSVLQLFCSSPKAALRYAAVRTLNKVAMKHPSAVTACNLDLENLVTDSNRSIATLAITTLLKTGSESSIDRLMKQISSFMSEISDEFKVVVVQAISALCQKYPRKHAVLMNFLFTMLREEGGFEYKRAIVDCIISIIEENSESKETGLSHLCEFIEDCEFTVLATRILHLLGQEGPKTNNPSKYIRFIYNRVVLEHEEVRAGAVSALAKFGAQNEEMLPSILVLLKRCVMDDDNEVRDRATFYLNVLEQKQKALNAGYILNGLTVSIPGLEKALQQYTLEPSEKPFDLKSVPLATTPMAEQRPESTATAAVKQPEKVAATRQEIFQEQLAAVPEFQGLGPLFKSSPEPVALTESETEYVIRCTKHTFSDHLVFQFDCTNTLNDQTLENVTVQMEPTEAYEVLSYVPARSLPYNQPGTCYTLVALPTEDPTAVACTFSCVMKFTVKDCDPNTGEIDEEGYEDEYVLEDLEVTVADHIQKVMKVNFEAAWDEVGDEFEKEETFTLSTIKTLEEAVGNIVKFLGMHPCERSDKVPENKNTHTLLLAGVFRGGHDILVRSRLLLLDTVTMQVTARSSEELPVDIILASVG

T2: γ2-COP-ultraID (γ2-COP subunit of coatomer with ultraID fused to its C-terminus) (UniProt Q9QXK3)
T2 sequence: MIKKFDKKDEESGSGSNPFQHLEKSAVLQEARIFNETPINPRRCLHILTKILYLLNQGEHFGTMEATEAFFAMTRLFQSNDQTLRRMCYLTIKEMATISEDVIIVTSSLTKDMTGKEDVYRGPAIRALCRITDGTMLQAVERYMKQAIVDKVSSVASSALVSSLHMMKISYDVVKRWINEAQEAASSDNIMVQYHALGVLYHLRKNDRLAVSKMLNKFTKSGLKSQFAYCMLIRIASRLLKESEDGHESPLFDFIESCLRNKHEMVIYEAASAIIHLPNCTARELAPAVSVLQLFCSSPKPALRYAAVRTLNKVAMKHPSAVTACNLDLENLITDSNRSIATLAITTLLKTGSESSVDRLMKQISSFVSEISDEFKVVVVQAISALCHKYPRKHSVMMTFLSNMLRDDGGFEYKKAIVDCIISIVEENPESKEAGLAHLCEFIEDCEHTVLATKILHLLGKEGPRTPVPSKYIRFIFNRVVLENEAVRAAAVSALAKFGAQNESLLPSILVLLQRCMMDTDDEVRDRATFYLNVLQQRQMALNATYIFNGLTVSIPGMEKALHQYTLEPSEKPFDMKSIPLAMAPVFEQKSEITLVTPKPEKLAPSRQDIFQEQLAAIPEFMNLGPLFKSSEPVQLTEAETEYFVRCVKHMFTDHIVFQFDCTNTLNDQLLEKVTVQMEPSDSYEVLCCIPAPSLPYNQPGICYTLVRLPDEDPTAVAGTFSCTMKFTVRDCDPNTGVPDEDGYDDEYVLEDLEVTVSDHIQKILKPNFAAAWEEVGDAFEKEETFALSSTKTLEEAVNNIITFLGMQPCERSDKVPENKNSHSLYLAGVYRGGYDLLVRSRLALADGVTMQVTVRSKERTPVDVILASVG

B1: GOS-28 (protein, UniProt O88630 1-250)
chain: MAAGTSNYWEDLRKQARQLENELDLKLVSFSKLCTSYSHSGSRDGGRDRYSSDTTPLLNGSSQDRMFETMAIEIEQLLARLTGVNDKMAEYTHSAGVPSLNAALMHTLQRHRDILQDYTHEFHKTKANFTAIRERENLMGSVRKDIESYKSGSGVNNRRTELFLKEHDHLRNSDRLIEETISIAMATKENMTSQRGMLKSIHSKMNTLANRFPAVNSLIQRINLRKRRDSLILGGVIGICTILLLLYAFH
B2: syntaxin-5 (protein, UniProt Q8K1E0 1-355)
chain: MIPRKRYGSKNTDQGVYLGLSKTQVLSPATAISSSSDSTPLPTPVALVPSPPDTMSCRDRTQEFQSACKSLQSRQNGIQTSKPALHAARQCSEFTLMARRIGKDLSNTFAKLEKLTILAKRKSLFDDKAVEIEELTYIIKQDINSLNKQIAQLQDFVRAKGSQSGRHLQTHSNTIVVSLQSKLASMSNDFKSVLEVRTENLKQQRNRREQFSRAPVSALPLAPNNLGGGPIILGAESRASRDVAIDMMDPRTSQQLQLIDEQDSYIQSRADTMQNIESTIVELGSIFQQLAHMVKEQEETIQRIDENVLGAQLDVEAAHSEILKYFQSVTSNRWLMVKIFLILIVFFIIFVVFLA
B3: ERGIC-53 (protein, UniProt Q9D0F3 31-517)
chain: DGTGGDAAAPGAAGTQAELPHRRFEYKYSFKGPHLVQSDGTVPFWAHAGNAIPSADQIRIAPSLKSQRGSVWTKAKAAFENWEVEVTFRVTGRGRIGADGLAIWYTENQGLDGPVFGSADTWNGVGIFFDSFDNDGKKNNPAIVVIGNNGQINYDHQNDGATQALASCQRDFRNKPYPVRAKITYYQKTLTVMINNGFTPDKNDYEFCAKVENMVIPTQGHFGISAATGGLADDHDVLSFLTFQLTEPGKEPPTAEKDISEKEKEKYQEEFEHFQQELDKKKEEFQKGHPDLQGQPADDIFESIGDRELRQVFEGQNRIHLEIKQLNRQLDMILDEQRRYVSSLTEEISRRGAGTPGQPGQVSQQELDTVVKSQQEILRQVNEVKNSMSETVRLVSGIQHPGSAGVYETTQHFMDIKEHLHVVKRDIDSLAQRSMPSNEKPKCPDLPPFPSCLSTIHFVIFVVVQTVLFVGYIMYRTQQEAAAKKFF
B4: golgin-84 (protein, UniProt Q9QYE6 1-729)
chain: MSWFADLAGRAEDLLNRVDQGAATALRKENTSNIFYSKNTDYPELQQQNTDSNYQTGQKANYISSAADNIRHQKATILAGTANVKVGSRTVGDATHPTEHASAPRPSSQFVRRKKSEPDDELLFDFLNSSQKEPTGRVEVKKEKGRAPVSPSSPSGVSSVNTSVTTTKAMGGNAGSQSPGVNSSDSVPEVHKEPSEESTAPSATSEEHSSTPSDGSSRSQELSNLRLENQLLRNEVQSLNQEMASLLQRSKETQEELNKARVRVEKWNVDNSKSDRITRELRAQVDDLTEAVAAKDSQLAVLKVRLQEADQVLSSRTEALEALRSEKSRIMQDHKEGSSLQNQALQTLQERLHEADATLKREQESYKQMQSEFAARLNKMEVDRQNLAEAVTLAERKYSEEKKKVDELQQQVKLHRASLESAKQELVDYKQKATRILQSKEKLINSLKEGSSFEGLESSTASSMELEELRHEKEMQKEEIQKLMGQMHQLRSELQDMEAQQVSEAESAREQLQDLQDQIAKQRTSKQELETELERMKQEFRYMEEDLHRTKNTLQSRIKDREEEIQKLRNQLTNKTLSNSSQSELESRLHQLTETLIQKQTMLESLSTEKNSLVFQLERLEQQVHSASSGPNSGSAINMSGVDSGEGTRLRNVPVLFNDTETNLAGMYGKVRKAASSIDQFSIRLGIFLRRYPIARVFVIIYMALLHLWVMIVLLTYSPEMHHDQPYGK
B5: WWOX (protein, UniProt Q91WL8 1-414)
chain: MAALRYAGLDDTDSEDELPPGWEERTTKDGWVYYANHTEEKTQWEHPKTGKRKRVAGDLPYGWEQETDENGQVFFVDHINKRTTYLDPRLAFTVDDNPTKPTTRQRYDGSTTAMEILQGRDFTGKVVLVTGANSGIGFETAKSFALHGAHVILACRNLSRASEAVSRILEEWHKAKVEAMTLDLAVLRSVQHFAEAFKAKNVSLHVLVCNAGTFALPWGLTKDGLETTFQVNHLGHFYLVQLLQDVLCRSSPARVIVVSSESHRFTDINDSSGKLDLSRLSPPRSDYWAMLAYNRSKLCNILFSNELHRRLSPRGVTSNAVHPGNMMYSAIHRNSWVYKLLFTLARPFTKSMQQGAATTVYCAVAPELEGLGGMYFNNCCRCLPSEEAQSEETARALWELSERLIQDRLGSPSS
B6: TMEM165 (protein, UniProt P52875 34-323)
chain: GPEEDLSHRNQEPPAPAQQLQPQPAAVQGLEPARAEKGLTPVAPVHTNKEDAAAQTNLGFIHAFVAAISVIIVSELGDKTFFIAAIMAMRYNRLTVLAGAMLALALMTCLSVLFGYATTVIPRVYTYYVSTALFAIFGIRMLREGLKMSPDEGQEELEEVQAELKKKDEEFQRTKLLNGPDVETGTSTAIPQKKWLHFISPIFVQALTLTFLAEWGDRSQLTTIVLAAREDPYGVAVGGTVGHCLCTGLAVIGGRMIAQKISVRTVTIIGGIVFLAFAFSALFISPESGF
B7: Scyl3 (protein, UniProt Q9DBQ7 1-735)
chain: MGSENSALKSYTLRESPFTLPSGLAVYPAILQDGKCASVFVYKRENEDKVNKAAKHLKTLRHPCLLRFLSCTVEADGIHLVTERVQPLEVALETLSPAEVCAGIYDILLALIFLHDRGHLTHNNVCLSSVFVSEDGHWKLGGMETVCQVPQATPEFLRNIQSVRDPASIPPEEMSPEFSGLPESHGHARDAYAFGALVDSLLPIFNEQVSADVLSSFLQILHSALLNPMPECRPALSTLLSHDFFRNDFLEVVNFLKSLTLKSEDEKTEFFKFLLDRVSCLSEELIASRLVPLLLNQLVFAEPVAVKSFLPYLLGPKKENAPGETPCLLSPALFQSRVIPVLLRLFEVHEEHVRMVLLSHIEAYVEHFTQEQLKKVILPQVLLGLRDTSNSIVAITLRSLAVLVSLLGPEVVVGGERTKIFKRTAPSFTKTSDLSPEGSPMHVVCSQQSRVSKVLEDPSSNVFPKWLSGNVPSSSRKRIQEECYSSLSQTGDQFSHTIKFPMNGLSDVKNTSEDNGSFPAGSNKPEEWPDWSEPEEPEQQPASIHRWPREPCDVAESQHTNLTAEEVTWDDGEASFGTEINSTATASAPVPVTSGGQSTSAALVPLTEESKPLQSSPSSKTSHRQHEEVKPPQVSQERPLKAPSGLGLGEEFTIQVKKKPVQDPELDWFADMIPEIKPSGTFLILPELRTEVMVPDKDNVSSLMQFSSKFAATEMTEGEAEGWEGEELAWEDNNW

Each binder was assayed against T1, γ1-COP-ultraID (γ1-COP subunit of coatomer with ultraID fused to its C-terminus) (assay: proximity labelling).

binding	Binder
binds	B1
binds	B2
binds	B3
binds	B4
binds	B5
binds	B6

The binders below were run against T2, γ2-COP-ultraID (γ2-COP subunit of coatomer with ultraID fused to its C-terminus) (assay: proximity labelling).

binding	Binder
binds	B7
binds	B1
binds	B2

These are yes or no findings as the source states them, for the method shown. In cells and extracts the contact can be indirect. Here binding means that the protein was enriched with, or labelled near, the bait; the list need not be complete. Tags and fused reporters may be left off the sequences shown.
